Laboratory results published in PubChem BioAssay AID222 (DTP/NCI, 2004).
The list is a part of this screen's results and no random one: it is rich in T/C values a quarter to a half above the control, in often repeated tests (any T/C) and in doses without a T/C. Other doses and runs of a compound stand elsewhere. T/C: endpoint of the treated group in % of that of the vehicle group. Some doses have a count of surviving animals in place of a T/C: the source files T/C as zero there, which appears to mark a toxic dose or a test without result, not a measured value. Some doses without a T/C left all or most animals alive at the check, yet need not have been tolerated: the source hardly ever lists a survival T/C far under the control, and the zero likely stands for such cases as well. Survivors were counted at the toxicity check, usually on the fifth day, unless a day is given; later deaths do not show. Schedule codes are those of the source, taken here to give the interval after Q, in days (D) or hours (H), and the number of doses after X. Some entries hold several experiments; the results are listed from low to high. Where survival is the endpoint, this PubChem deposit counts one and a half times the control or more as active, and values a quarter to a half above the control carry no call in these data; other NCI protocols may use other cut-offs. Some T/C values are followed by the survivors on the day toxicity was checked, most often the fifth; where none is given, no animal had died by that day. Brackets with × stand for listed records that agree. Starred links: 1 amine or outer side, 2 acyl side, 3 side chain; linkers in the order of their positions; H or OH if unused. Positions of bridges follow the written chain, without caps; N, C: chain ends. Non-standard residues stand in square brackets, D forms with d. Residues, ends and D or L forms follow the SMILES beside them. Chains are numbered I, II in the order given. Actinocin(9to1) = Cc1c2oc3c(C)ccc(C(=O)[*:1])c3nc-2c(C(=O)[*:2])c(N)c1=O; aThr = C[C@H](O)[C@H](N)C(=O)O; NMeV = CN[C@H](C(=O)O)C(C)C; Sar = CNCC(=O)O

Tested on: C57BL/6 mice, intracerebral ependymoblastoma, median survival T/C
Test: NCI In Vivo Anticancer Drug Screen. Data for tumor model Ependymoblastoma (intracerebral) in C57BL/6 mice
Conditions: T/C endpoint: median survival time, higher T/C = longer survival
Method: The antitumor activity of compounds was measured in mice bearing transplantable tumors. Survival or tumor size were measured and the results are expressed as the measurement made in the treated group (T) divided by the measurement made in the vehicle treated control group (C). The tumor model used in this assay is Ependymoblastoma (intracerebral) in C57BL/6 mice

[1] = dose: 200.0 mg/kg/injection, schedule: Q01DX005 (ip), vehicle: Klucel (hydroxypropylcellulose) (HPC)
[2] = dose: 400.0 mg/kg/injection, schedule: Q01DX005 (ip), vehicle: Klucel (hydroxypropylcellulose) (HPC)
[3] = dose: 16.0 mg/kg/injection, schedule: Q01DX005 (ip), vehicle: Klucel (hydroxypropylcellulose) (HPC)
[4] = dose: 1.6 mg/kg/injection, schedule: Q01DX005 (ip), vehicle: saline
[5] = dose: 4.0 mg/kg/injection, schedule: Q01DX005 (ip), vehicle: Klucel (hydroxypropylcellulose) (HPC)
[6] = dose: 64.0 mg/kg/injection, schedule: Q01DX005 (ip), vehicle: Klucel (hydroxypropylcellulose) (HPC)
[7] = dose: 256.0 mg/kg/injection, schedule: Q01DX005 (ip), vehicle: Klucel (hydroxypropylcellulose) (HPC)
[8] = dose: 1024.0 mg/kg/injection, schedule: Q01DX005 (ip), vehicle: Klucel (hydroxypropylcellulose) (HPC)
[9] = dose: 8.0 mg/kg/injection, schedule: Q01DX005 (ip), vehicle: saline
[10] = dose: 16.0 mg/kg/injection, schedule: Q01DX005 (ip), vehicle: saline
[11] = dose: 32.0 mg/kg/injection, schedule: Q01DX005 (ip), vehicle: saline

`O=c1c(O)c(-c2ccc(O)c(O)c2)oc2cc(O)cc(O)c12` was tested, and the survivor count [1] was 9 of 10, the survivor count [2] was 7 of 10 and the survivor count (dose: 400.0 mg/kg/injection, schedule: Q01DX005 (ip), vehicle: other) was 7 of 10. For the same molecule, the survivor count (dose: 800.0 mg/kg/injection, schedule: Q01DX005 (ip), vehicle: Klucel (hydroxypropylcellulose) (HPC)) was 6 of 10 and the survivor count (dose: 800.0 mg/kg/injection, schedule: Q01DX005 (ip), vehicle: other) was 0 of 10.

`Cc1c2oc3c(C)ccc(C(=O)N[C@@H]4C(=O)N[C@H](C(C)C)C(=O)N5CCC[C@H]5C(=O)N(C)CC(=O)N(C)[C@@H](C(C)C)C(=O)O[C@H]4C)c3nc-2c(C(=O)N[C@@H]2C(=O)N[C@H](C(C)C)C(=O)N3CCC[C@H]3C(=O)N(C)CC(=O)N(C)[C@@H](C(C)C)C(=O)O[C@H]2C)c(N)c1=O` (I: [aThr][dV]P[Sar][NMeV] / II: [aThr][dV]P[Sar][NMeV]; ester I:1-I:C, II:1-II:C; linker I:N-II:N via Actinocin(9to1)) was tested, and the survivor count (dose: 100.0 micrograms/kg/injection, schedule: Q01DX005 (ip), vehicle: saline) was 6 of 6, the survivor count (dose: 200.0 micrograms/kg/injection, schedule: Q01DX005 (ip), vehicle: saline) was 0 of 6 and the survivor count (dose: 400.0 micrograms/kg/injection, schedule: Q01DX005 (ip), vehicle: saline) was 0 of 6. The survivor count (dose: 800.0 micrograms/kg/injection, schedule: Q01DX005 (ip), vehicle: saline) was 0 of 6.

For `COC1C(CO)OC(n2cnc3c(=S)nc(N)[nH]c32)C1O` (centres undefined), the survivor count (dose: 50.0 mg/kg/injection, schedule: Q01DX005 (ip), vehicle: Klucel (hydroxypropylcellulose) (HPC)) was 9 of 10, the survivor count [1] was 7 of 10 and the survivor count [2] was 7 of 10.

For `Nc1ncnc2c1ncn2C1OC(COP(=O)(O)O)C(O)C1O` (centres undefined), the survivor count (dose: 400.0 mg/kg/injection, schedule: Q01DX005 (ip), vehicle: saline) was 7 of 10 and the T/C (dose: 1600.0 mg/kg/injection, schedule: Q01DX005 (ip), vehicle: saline) was 126 % of control [7 of 10 alive].

With `Nc1nc(=S)c2ncn(C3OC(COC(=O)c4ccc(Cl)cc4)C(OC(=O)c4ccc(Cl)cc4)C3OC(=O)c3ccc(Cl)cc3)c2[nH]1` (centres undefined) the survivor count (dose: 75.0 mg/kg/injection, schedule: Q01DX005 (ip), vehicle: Klucel (hydroxypropylcellulose) (HPC)) was 9 of 10 and the survivor count (dose: 150.0 mg/kg/injection, schedule: Q01DX005 (ip), vehicle: Klucel (hydroxypropylcellulose) (HPC)) was 10 of 10.

In the case of `O=C(O)CCCc1ccc(N(CCCl)CCCl)cc1`, the survivor count (dose: 0.5 mg/kg/injection, schedule: Q01DX005 (ip), vehicle: Klucel (hydroxypropylcellulose) (HPC)) is reported as 5 of 6, the survivor count (dose: 16.0 mg/kg/injection, schedule: Q01DX001 (ip), vehicle: Klucel (hydroxypropylcellulose) (HPC)) is reported as 8 of 10 and the survivor count [3] is reported as 9 of 10. The survivor count (dose: 32.0 mg/kg/injection, schedule: Q01DX001 (ip), vehicle: Klucel (hydroxypropylcellulose) (HPC)) was 5 of 10 and the survivor count (dose: 32.0 mg/kg/injection, schedule: Q01DX005 (ip), vehicle: Klucel (hydroxypropylcellulose) (HPC)) was 4 of 10 and 8 of 10.

With `C[n+]1ccc(Nc2ccc(NC(=O)c3ccc(Nc4cc[n+](C)c5ccc(N)cc45)cc3)cc2)cc1` the survivor count [3] was 9 of 10.

In the case of `COc1cc2c(c(OC)c1OC)-c1ccc(OC)c(=O)cc1[C@@H](NC(C)=O)CC2`, the survivor count [4] is reported as 4 of 10.

In the case of `NNC(=O)c1ccncc1`, the survivor count (dose: 230.0 mg/kg/injection, schedule: Q01DX005 (ip), vehicle: saline) is reported as 3 of 10 and the survivor count (dose: 460.0 mg/kg/injection, schedule: Q01DX005 (ip), vehicle: saline) is reported as 0 of 10.

With `CCOC(=O)CNC(=O)CCCCSc1ncnc2nc[nH]c12` the T/C [5] was 98, 106, 112 % of control, the survivor count [5] was 10 of 10 and the T/C [3] was 94 (2×), 101, 104, 110 % of control. For the same molecule, the T/C [6] was 103, 104 (2×), 111 [9 of 10 alive], 113 [9 of 10 alive], 116 % of control, the survivor count (dose: 256.0 mg/kg/injection, schedule: Q01DX001 (oral), vehicle: Klucel (hydroxypropylcellulose) (HPC)) was 2 of 10 and the T/C [7] was 102 [9 of 10 alive], 106, 111, 117 % of control. For the same molecule, the T/C (dose: 512.0 mg/kg/injection, schedule: Q01DX005 (ip), vehicle: Klucel (hydroxypropylcellulose) (HPC)) was 127 % of control, the T/C [8] was 118 and 130 % of control and the survivor count [8] was 0 of 10, 9 of 10, 10 of 10. For the same molecule, the survivor count (dose: 1024.0 mg/kg/injection, schedule: Q01DX005 (ip), vehicle: saline) was 10 of 10 and the survivor count (dose: 2048.0 mg/kg/injection, schedule: Q01DX005 (ip), vehicle: saline) was 8 of 10.

In the case of `N[C@H](C(=O)O)[C@@H]1CC(Cl)=NO1`, the T/C (dose: 2.0 mg/kg/injection, schedule: Q01DX005 (ip), vehicle: saline) is reported as 102, 103 [8 of 10 alive], 107, 108, 111, 112 % of control, the T/C (dose: 4.0 mg/kg/injection, schedule: Q01DX005 (ip), vehicle: saline) is reported as 95 [9 of 10 alive], 103, 103 [8 of 10 alive], 105, 107, 112 % of control and the T/C [9] is reported as 112, 113, 115, 118 % of control. For the same molecule, the survivor count [9] was 10 of 10, the survivor count (dose: 16.0 mg/kg/injection, schedule: Q01DX005 (ip), vehicle: saline with Tween-80) was 9 of 10 and the T/C [10] was 88, 118, 120, 126 % of control. For the same molecule, the survivor count [10] was 10 of 10, the T/C (dose: 32.0 mg/kg/injection, schedule: Q01DX001 (ip), vehicle: saline) was 126 % of control [9 of 10 alive] and the survivor count (dose: 32.0 mg/kg/injection, schedule: Q01DX005 (ip), vehicle: saline with Tween-80) was 10 of 10. For the same molecule, the T/C [11] was 121 % of control, the survivor count [11] was 9 of 10 and 10 of 10 and the survivor count (dose: 64.0 mg/kg/injection, schedule: Q01DX005 (ip), vehicle: saline with Tween-80) was 10 of 10.

With `C[C@@H](CN1CC(=O)NC(=O)C1)N1CC(=O)NC(=O)C1` the survivor count (dose: 4.0 mg/kg/injection, schedule: Q01DX005 (ip), vehicle: other) was 10 of 10, the survivor count (dose: 16.0 mg/kg/injection, schedule: Q01DX005 (ip), vehicle: other) was 10 of 10 and the T/C [6] was 126 % of control. For the same molecule, the survivor count (dose: 64.0 mg/kg/injection, schedule: Q01DX005 (ip), vehicle: other) was 10 of 10, the survivor count (dose: 128.0 mg/kg/injection, schedule: Q01DX005 (ip), vehicle: saline) was 10 of 10 and the survivor count [7] was 9 of 10 and 10 of 10. The survivor count (dose: 256.0 mg/kg/injection, schedule: Q01DX005 (ip), vehicle: other) was 10 of 10, the survivor count (dose: 256.0 mg/kg/injection, schedule: Q01DX005 (ip), vehicle: saline) was 9 of 10 and 10 of 10 and the survivor count (dose: 256.0 mg/kg/injection, schedule: Q01DX005 (ip), vehicle: water) was 10 of 10. The survivor count (dose: 512.0 mg/kg/injection, schedule: Q01DX005 (ip), vehicle: saline) was 9 of 10 and 10 of 10, the survivor count [8] was 2 of 10, 9 of 10, 10 of 10 and the survivor count (dose: 1024.0 mg/kg/injection, schedule: Q01DX005 (ip), vehicle: other) was 10 of 10.

With `CCC1(O)CC2CN(CCc3c([nH]c4ccccc34)C(C(=O)OC)(c3cc4c(cc3OC)N(C)C3C(O)(C(=O)NCCO)C(O)C5(CC)C=CCN6CCC43C65)C2)C1` (centres undefined) the survivor count [4] was 0 of 6, the survivor count (dose: 3.2 mg/kg/injection, schedule: Q01DX005 (ip), vehicle: saline) was 1 of 6 and the survivor count (dose: 6.4 mg/kg/injection, schedule: Q01DX005 (ip), vehicle: saline) was 0 of 6. The survivor count (dose: 12.8 mg/kg/injection, schedule: Q01DX005 (ip), vehicle: saline) was 0 of 6.
